Assay results published in PubChem BioAssay AID250 (DTP/NCI, 2004).
The list shows only some results of the screen, not a fair sample: it gathers tests that were run many times, whatever their T/C, doses with no T/C, and many T/C values between a quarter and a half above the control. Further doses and runs are listed elsewhere. T/C: endpoint of the treated group in % of that of the vehicle group. Some doses have a count of surviving animals in place of a T/C: the source files T/C as zero there, which appears to mark a toxic dose or a test without result, not a measured value. Some survivor counts are full or nearly so, which does not show that the dose was tolerated: the source hardly ever lists a survival T/C far under the control, and the zero likely stands for such cases as well. For some of these results: Survivors were counted at the toxicity check, usually on the fifth day, unless a day is given; later deaths do not show. Schedules are NCI's codes, taken here to give the interval after Q, in days (D) or hours (H), and the number of doses after X. Some schedules carry Z or #; the key to these is not given. For survival time, the PubChem record calls one and a half times the control and up active, and a quarter to a half above the control has no call in these data; cut-offs in other NCI protocols can differ. Some entries hold several experiments; the values are given in rising order. Additions like (4×) give the number of equal values in this list. Some T/C values carry the count of animals alive at the toxicity check (mostly the fifth day); without a count, all were alive then.

Experiments:
[1] = test system: BDF1 mice, L1210 leukemia sc; experiment: NCI In Vivo Anticancer Drug Screen. Data for tumor model L1210 Leukemia (subcutaneous) in B6D2F1 (BDF1) mice; conditions: higher T/C = longer survival
In short: (§1)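 Expressed as T/C: measurement in compound-treated, tumor-bearing mice relative to vehicle-treated control mice, based on survival or tumor size.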

[2] = test system: BDF1 mice, L1210 leukemia sc, survival T/C; experiment: as above; conditions: higher T/C = longer survival; for T/C: vehicle: water
In short: as §1

[3] = T/C endpoint: median survival time, dose: 180.0 mg/kg/injection, schedule: Q01DX Z (sc), vehicle: methylcellulose (MC)
[4] = T/C endpoint: median survival time, dose: 300.0 mg/kg/injection, schedule: Q01DX Z (sc), vehicle: methylcellulose (MC)
[5] = T/C endpoint: median survival time, dose: 500.0 mg/kg/injection, schedule: Q01DX Z (sc), vehicle: methylcellulose (MC)
[6] = T/C endpoint: median survival time, dose: 108.0 mg/kg/injection, schedule: Q01DX Z (sc), vehicle: methylcellulose (MC)

SMILES: C[C@]12C=CC(=O)C=C1CC[C@@H]1[C@@H]2C(=O)C[C@@]2(C)[C@H]1CC[C@]2(O)C(=O)CO
- T/C ([1]; T/C endpoint: median survival time, dose: 62.5 mg/kg/injection, schedule: Q01DX009 (sc), vehicle: water, evaluated on day 7): 137 % of control
- T/C ([1]; T/C endpoint: median survival time, dose: 62.5 mg/kg/injection, schedule: Q01DX009 (sc), vehicle: water, evaluated on day 24): 133 % of control
- T/C ([1]; T/C endpoint: median survival time, dose: 108.0 mg/kg/injection, schedule: Q01DX009 (sc), vehicle: water): 127 and 138 % of control
- T/C ([1]; T/C endpoint: median survival time, dose: 125.0 mg/kg/injection, schedule: Q01DX009 (sc), vehicle: water, evaluated on day 7): 136 and 147 % of control (2×)
- T/C ([1]; T/C endpoint: median survival time, dose: 125.0 mg/kg/injection, schedule: Q01DX009 (sc), vehicle: water, evaluated on day 18): 133 % of control
- T/C ([1]; T/C endpoint: median survival time, dose: 180.0 mg/kg/injection, schedule: Q01DX009 (sc), vehicle: water): 138 % of control
- T/C [1, 3]: 130 % of control [7 of 10 alive]
- T/C ([1]; T/C endpoint: median survival time, dose: 233.0 mg/kg/injection, schedule: Q02DX Z (sc), vehicle: water): 138 % of control
- T/C ([1]; T/C endpoint: median survival time, dose: 250.0 mg/kg/injection, schedule: Q01DX009 (sc), vehicle: water, evaluated on day 7): 134 and 144 % of control
- T/C ([1]; T/C endpoint: median survival time, dose: 250.0 mg/kg/injection, schedule: Q01DX009 (sc), vehicle: water, evaluated on day 18): 144 % of control
- T/C ([1]; T/C endpoint: median survival time, dose: 250.0 mg/kg/injection, schedule: Q01DX009 (sc), vehicle: water, evaluated on day 19): 137 % of control
- T/C ([1]; T/C endpoint: median survival time, dose: 300.0 mg/kg/injection, schedule: Q01DX009 (sc), vehicle: water): 133 and 144 % of control
- T/C [1, 4]: 130 % of control [7 of 10 alive]
- T/C ([1]; T/C endpoint: median survival time, dose: 500.0 mg/kg/injection, schedule: Q01DX009 (sc), vehicle: water, evaluated on day 7): 134 and 136 % of control
- T/C ([1]; T/C endpoint: median survival time, dose: 500.0 mg/kg/injection, schedule: Q01DX009 (sc), vehicle: water, evaluated on day 18): 133 (2×) and 144 % of control
- T/C ([1]; T/C endpoint: median survival time, dose: 500.0 mg/kg/injection, schedule: Q01DX009 (sc), vehicle: water, evaluated on day 19): 137 % of control
- T/C [1, 5]: 130 % of control [7 of 10 alive]
- T/C ([1]; T/C endpoint: median survival time, dose: 648.0 mg/kg/injection, schedule: Q02DX Z (sc), vehicle: water): 144 % of control [9 of 10 alive]
- T/C ([1]; T/C endpoint: median survival time, dose: 833.0 mg/kg/injection, schedule: Q01DX009 (sc), vehicle: water): 127 and 133 % of control
- T/C ([1]; T/C endpoint: median survival time, dose: 1000.0 mg/kg/injection, schedule: Q01DX009 (sc), vehicle: water, evaluated on day 7): 140 % of control
- T/C ([1]; T/C endpoint: median survival time, dose: 1000.0 mg/kg/injection, schedule: Q01DX009 (sc), vehicle: water, evaluated on day 19): 143 % of control
- T/C ([1]; T/C endpoint: median survival time, dose: 1388.0 mg/kg/injection, schedule: Q01DX009 (sc), vehicle: water): 133 and 144 % of control
- T/C ([1]; T/C endpoint: median survival time, dose: 2000.0 mg/kg/injection, schedule: Q01DX009 (sc), vehicle: water, evaluated on day 7): 128, 133, 144 % of control
- T/C ([1]; T/C endpoint: median survival time, dose: 2000.0 mg/kg/injection, schedule: Q01DX009 (sc), vehicle: water, evaluated on day 18): 133 % of control
- T/C ([1]; T/C endpoint: median survival time, dose: 2000.0 mg/kg/injection, schedule: Q01DX009 (sc), vehicle: water, evaluated on day 19): 131 % of control
- T/C ([1]; T/C endpoint: median survival time, dose: 2000.0 mg/kg/injection, schedule: Q01DX009 (sc), vehicle: water, evaluated on day 24): 144 % of control
- survivor count ([2]; T/C endpoint: median survival time, dose: 23.0 mg/kg/injection, schedule: Q01DX Z (sc), vehicle: methylcellulose (MC)): 3 of 10
- survivor count ([2]; T/C endpoint: median survival time, dose: 39.0 mg/kg/injection, schedule: Q01DX Z (sc), vehicle: methylcellulose (MC)): 3 of 10
- T/C ([2]; T/C endpoint: median survival time, dose: 62.5 mg/kg/injection, schedule: Q01DX009 (sc), evaluated on day 7): 106 % of control
- T/C ([2]; T/C endpoint: median survival time, dose: 62.5 mg/kg/injection, schedule: Q01DX009 (sc), evaluated on day 18): 105 % of control
- survivor count ([2]; T/C endpoint: median survival time, dose: 65.0 mg/kg/injection, schedule: Q01DX Z (sc), vehicle: methylcellulose (MC)): 4 of 10
- survivor count [2, 6]: 5 of 10
- T/C ([2]; T/C endpoint: median survival time, dose: 125.0 mg/kg/injection, schedule: Q01DX009 (sc), evaluated on day 19): 150 % of control
- T/C ([2]; T/C endpoint: median survival time, dose: 125.0 mg/kg/injection, schedule: Q01DX009 (sc), evaluated on day 24): 150 % of control
- survivor count [2, 3]: 5 of 10
- T/C ([2]; T/C endpoint: median survival time, dose: 250.0 mg/kg/injection, schedule: Q01DX009 (sc), evaluated on day 7): 161 % of control
- T/C ([2]; T/C endpoint: median survival time, dose: 250.0 mg/kg/injection, schedule: Q01DX009 (sc), evaluated on day 24): 166 % of control
- T/C ([2]; T/C endpoint: median survival time, dose: 500.0 mg/kg/injection, schedule: Q01DX009 (sc), evaluated on day 7): 153 % of control
- T/C ([2]; T/C endpoint: median survival time, dose: 500.0 mg/kg/injection, schedule: Q01DX009 (sc), evaluated on day 24): 155 % of control
- T/C ([2]; T/C endpoint: median survival time, dose: 1000.0 mg/kg/injection, schedule: Q01DX009 (sc), evaluated on day 7): 150 and 153 % of control
- T/C ([2]; T/C endpoint: median survival time, dose: 1000.0 mg/kg/injection, schedule: Q01DX009 (sc), evaluated on day 18): 150 % of control
- T/C ([2]; T/C endpoint: median survival time, dose: 1000.0 mg/kg/injection, schedule: Q01DX009 (sc), evaluated on day 24): 150 % of control

SMILES: CC(=O)OCC(=O)[C@@]1(O)CC[C@H]2[C@@H]3CCC4=CC(=O)CC[C@]4(C)[C@@]3(F)[C@@H](O)C[C@@]21C
- T/C ([1]; T/C endpoint: median survival time, dose: 833.0 mg/kg/injection, schedule: Q01DX Z (sc), vehicle: methylcellulose (MC)): 125 % of control
- survivor count [2, 6]: 2 of 10
- survivor count [2, 3]: 2 of 10
- survivor count [2, 4]: 4 of 10
- survivor count [2, 5]: 5 of 10

SMILES: COCCCN=C(N)c1ccc(NC(=O)c2ccc(C(=O)Nc3ccc(C(N)=NCCCOC)cc3)cc2)cc1
- T/C ([1]; T/C endpoint: median survival time, dose: 14.0 mg/kg/injection, schedule: Q01DX Z (sc), vehicle: saline): 125 % of control
- T/C ([1]; T/C endpoint: median survival time, dose: 23.0 mg/kg/injection, schedule: Q01DX Z (sc), vehicle: saline): 125 % of control
- survivor count ([2]; T/C endpoint: median survival time, dose: 65.0 mg/kg/injection, schedule: Q01DX Z (sc), vehicle: saline): 10 of 10

SMILES: CC1CC(C)(O)CC(C(O)CC2CC(=O)NC(=O)C2)C1=O (stereo not given)
- T/C ([1]; T/C endpoint: median survival time, dose: 0.23 mg/kg/injection, schedule: Q01DX Z (sc), vehicle: saline): 140 % of control
- T/C ([1]; T/C endpoint: median survival time, dose: 0.39 mg/kg/injection, schedule: Q01DX Z (sc), vehicle: saline): 145 % of control
- T/C ([1]; T/C endpoint: median survival time, dose: 0.65 mg/kg/injection, schedule: Q01DX Z (sc), vehicle: saline): 130 % of control
- T/C ([1]; T/C endpoint: median survival time, dose: 3.0 mg/kg/injection, schedule: Q02DX Z (sc), vehicle: saline): 125 % of control
- T/C ([1]; T/C endpoint: median survival time, dose: 5.0 mg/kg/injection, schedule: Q02DX Z (sc), vehicle: saline): 125 % of control
- T/C ([1]; T/C endpoint: median survival time, dose: 8.4 mg/kg/injection, schedule: Q01DX001 (sc), vehicle: saline): 130 % of control
- T/C ([1]; T/C endpoint: median survival time, dose: 14.0 mg/kg/injection, schedule: Q01DX001 (sc), vehicle: saline): 125 % of control [7 of 10 alive]
- survivor count ([2]; T/C endpoint: median survival time, dose: 5.18 mg/kg/injection, schedule: Q01DX Z (sc), vehicle: saline): 6 of 10
- survivor count ([2]; T/C endpoint: median survival time, dose: 8.64 mg/kg/injection, schedule: Q01DX Z (sc), vehicle: saline): 6 of 10
- survivor count ([2]; T/C endpoint: median survival time, dose: 23.0 mg/kg/injection, schedule: Q01DX001 (sc), vehicle: saline): 0 of 10
- survivor count ([2]; T/C endpoint: median survival time, dose: 23.0 mg/kg/injection, schedule: Q## X Z (sc), vehicle: saline): 2 of 10
- survivor count ([2]; T/C endpoint: median survival time, dose: 39.0 mg/kg/injection, schedule: Q01DX001 (sc), vehicle: saline): 0 of 10
- survivor count ([2]; T/C endpoint: median survival time, dose: 39.0 mg/kg/injection, schedule: Q## X Z (sc), vehicle: saline): 1 of 10
- survivor count ([2]; T/C endpoint: median survival time, dose: 65.0 mg/kg/injection, schedule: Q01DX001 (sc), vehicle: saline): 0 of 10

SMILES: COc1ccc2c(Nc3ccc(NS(C)(=O)=O)cc3)c3ccccc3nc2c1
- T/C ([1]; T/C endpoint: mean survival time, dose: 12.5 mg/kg/injection, schedule: Q01DX009 (sc), vehicle: saline): 125 % of control
- T/C ([1]; T/C endpoint: mean survival time, dose: 25.0 mg/kg/injection, schedule: Q01DX009 (sc), vehicle: saline): 144 % of control
- survivor count ([2]; T/C endpoint: mean survival time, dose: 50.0 mg/kg/injection, schedule: Q01DX009 (sc), vehicle: saline): 10 of 10

SMILES: CCNc1nncs1
- T/C ([1]; T/C endpoint: median survival time, dose: 108.0 mg/kg/injection, schedule: Q01DX Z (sc), vehicle: other): 135 % of control [8 of 10 alive]
- T/C ([1]; T/C endpoint: median survival time, dose: 500.0 mg/kg/injection, schedule: Q01DX Z (sc), vehicle: other): 130 % of control [9 of 10 alive]
- survivor count ([2]; T/C endpoint: median survival time, dose: 39.0 mg/kg/injection, schedule: Q01DX Z (sc), vehicle: other): 3 of 10
